From the supplement of paper PMC10849652
The other results are listed elsewhere or left out.

Sequences of proteins named here, by UniProt entry; tags and fusion partners are left off. A change or cut given only in a name is not applied to a line headed by its entry.
UniProt P78368: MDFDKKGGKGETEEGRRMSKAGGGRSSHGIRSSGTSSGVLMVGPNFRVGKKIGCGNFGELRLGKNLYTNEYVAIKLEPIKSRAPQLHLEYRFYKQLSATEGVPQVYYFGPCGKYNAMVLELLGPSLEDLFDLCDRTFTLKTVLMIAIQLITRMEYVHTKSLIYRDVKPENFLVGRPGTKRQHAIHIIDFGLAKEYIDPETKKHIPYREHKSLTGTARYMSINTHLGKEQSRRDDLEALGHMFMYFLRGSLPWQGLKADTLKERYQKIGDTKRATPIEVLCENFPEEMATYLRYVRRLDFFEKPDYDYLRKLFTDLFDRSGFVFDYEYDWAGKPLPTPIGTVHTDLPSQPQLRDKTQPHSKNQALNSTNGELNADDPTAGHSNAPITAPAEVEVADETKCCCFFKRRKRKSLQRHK
UniProt Q13620, whole entry, looked up: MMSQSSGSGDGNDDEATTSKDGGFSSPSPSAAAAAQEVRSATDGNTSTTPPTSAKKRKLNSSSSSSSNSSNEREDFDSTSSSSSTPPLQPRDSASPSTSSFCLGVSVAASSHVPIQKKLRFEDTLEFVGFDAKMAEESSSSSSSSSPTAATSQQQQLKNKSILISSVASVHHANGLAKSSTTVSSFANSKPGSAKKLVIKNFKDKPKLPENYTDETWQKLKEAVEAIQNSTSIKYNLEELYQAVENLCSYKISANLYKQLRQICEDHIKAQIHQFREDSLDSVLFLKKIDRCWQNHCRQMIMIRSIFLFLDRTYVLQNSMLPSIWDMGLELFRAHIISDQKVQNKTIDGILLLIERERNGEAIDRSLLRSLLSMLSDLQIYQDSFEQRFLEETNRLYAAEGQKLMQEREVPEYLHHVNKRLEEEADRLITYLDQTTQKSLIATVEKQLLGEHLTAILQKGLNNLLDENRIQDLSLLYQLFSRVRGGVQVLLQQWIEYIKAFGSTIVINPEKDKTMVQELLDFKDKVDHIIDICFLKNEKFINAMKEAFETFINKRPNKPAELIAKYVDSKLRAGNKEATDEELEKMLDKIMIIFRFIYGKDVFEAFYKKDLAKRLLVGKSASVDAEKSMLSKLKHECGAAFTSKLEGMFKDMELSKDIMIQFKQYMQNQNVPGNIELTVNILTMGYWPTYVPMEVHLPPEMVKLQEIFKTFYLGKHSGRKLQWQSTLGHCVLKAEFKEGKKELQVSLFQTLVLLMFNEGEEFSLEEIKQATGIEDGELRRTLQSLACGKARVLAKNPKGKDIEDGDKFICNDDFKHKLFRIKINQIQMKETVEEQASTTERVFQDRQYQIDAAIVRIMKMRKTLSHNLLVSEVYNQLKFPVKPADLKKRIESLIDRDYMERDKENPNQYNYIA
UniProt Q2TBE0: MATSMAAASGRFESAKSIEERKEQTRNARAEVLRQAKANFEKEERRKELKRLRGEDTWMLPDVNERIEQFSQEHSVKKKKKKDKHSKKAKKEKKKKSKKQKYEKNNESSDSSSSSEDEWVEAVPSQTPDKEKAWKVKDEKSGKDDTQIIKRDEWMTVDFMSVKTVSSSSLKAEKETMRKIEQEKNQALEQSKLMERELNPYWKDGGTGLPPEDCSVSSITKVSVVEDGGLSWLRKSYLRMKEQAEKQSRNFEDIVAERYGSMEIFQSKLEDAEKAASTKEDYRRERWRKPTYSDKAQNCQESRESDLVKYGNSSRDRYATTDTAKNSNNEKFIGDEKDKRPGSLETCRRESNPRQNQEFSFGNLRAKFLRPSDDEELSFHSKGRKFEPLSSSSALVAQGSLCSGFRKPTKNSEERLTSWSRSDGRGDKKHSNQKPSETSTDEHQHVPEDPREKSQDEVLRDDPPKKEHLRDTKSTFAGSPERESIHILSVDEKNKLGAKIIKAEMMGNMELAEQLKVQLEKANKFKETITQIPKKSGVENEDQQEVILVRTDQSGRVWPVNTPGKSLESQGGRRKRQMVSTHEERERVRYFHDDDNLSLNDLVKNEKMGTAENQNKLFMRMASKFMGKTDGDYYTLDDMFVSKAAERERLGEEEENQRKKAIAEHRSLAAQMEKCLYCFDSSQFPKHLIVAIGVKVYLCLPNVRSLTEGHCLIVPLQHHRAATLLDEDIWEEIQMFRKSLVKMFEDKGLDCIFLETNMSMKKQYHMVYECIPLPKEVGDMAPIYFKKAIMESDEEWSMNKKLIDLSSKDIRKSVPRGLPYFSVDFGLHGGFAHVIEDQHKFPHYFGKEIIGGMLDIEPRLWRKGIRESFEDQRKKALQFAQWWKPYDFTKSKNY
UniProt A4D126: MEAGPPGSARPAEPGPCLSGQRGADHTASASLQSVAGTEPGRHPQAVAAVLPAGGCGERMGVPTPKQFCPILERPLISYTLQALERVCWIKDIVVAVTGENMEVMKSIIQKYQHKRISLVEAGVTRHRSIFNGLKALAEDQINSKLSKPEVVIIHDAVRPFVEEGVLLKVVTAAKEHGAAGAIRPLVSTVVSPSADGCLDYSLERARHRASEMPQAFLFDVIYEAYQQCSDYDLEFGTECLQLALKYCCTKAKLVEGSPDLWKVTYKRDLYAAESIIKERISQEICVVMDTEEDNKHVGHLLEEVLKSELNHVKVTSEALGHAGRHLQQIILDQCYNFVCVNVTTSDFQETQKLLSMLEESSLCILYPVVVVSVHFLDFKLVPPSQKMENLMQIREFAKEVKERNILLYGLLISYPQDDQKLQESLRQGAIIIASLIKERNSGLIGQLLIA
UniProt P50461: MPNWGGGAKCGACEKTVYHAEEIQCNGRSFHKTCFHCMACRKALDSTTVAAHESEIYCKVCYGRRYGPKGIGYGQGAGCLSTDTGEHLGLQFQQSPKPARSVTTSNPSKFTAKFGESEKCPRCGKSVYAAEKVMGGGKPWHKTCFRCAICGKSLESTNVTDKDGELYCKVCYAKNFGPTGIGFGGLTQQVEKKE
UniProt P07711: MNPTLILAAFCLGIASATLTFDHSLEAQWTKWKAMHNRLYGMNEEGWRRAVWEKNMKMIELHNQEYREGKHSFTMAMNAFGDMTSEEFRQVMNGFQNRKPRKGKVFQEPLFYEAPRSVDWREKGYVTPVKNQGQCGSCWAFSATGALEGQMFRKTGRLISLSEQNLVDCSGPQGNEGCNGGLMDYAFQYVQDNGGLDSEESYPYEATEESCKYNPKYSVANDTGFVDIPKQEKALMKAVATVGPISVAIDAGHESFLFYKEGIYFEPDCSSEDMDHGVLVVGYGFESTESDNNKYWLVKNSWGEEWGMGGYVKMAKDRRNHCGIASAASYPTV
UniProt O43169: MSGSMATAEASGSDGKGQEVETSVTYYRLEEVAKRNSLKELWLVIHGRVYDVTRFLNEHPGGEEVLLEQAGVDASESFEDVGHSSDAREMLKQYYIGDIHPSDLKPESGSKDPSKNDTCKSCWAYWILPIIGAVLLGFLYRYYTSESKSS
UniProt P49711: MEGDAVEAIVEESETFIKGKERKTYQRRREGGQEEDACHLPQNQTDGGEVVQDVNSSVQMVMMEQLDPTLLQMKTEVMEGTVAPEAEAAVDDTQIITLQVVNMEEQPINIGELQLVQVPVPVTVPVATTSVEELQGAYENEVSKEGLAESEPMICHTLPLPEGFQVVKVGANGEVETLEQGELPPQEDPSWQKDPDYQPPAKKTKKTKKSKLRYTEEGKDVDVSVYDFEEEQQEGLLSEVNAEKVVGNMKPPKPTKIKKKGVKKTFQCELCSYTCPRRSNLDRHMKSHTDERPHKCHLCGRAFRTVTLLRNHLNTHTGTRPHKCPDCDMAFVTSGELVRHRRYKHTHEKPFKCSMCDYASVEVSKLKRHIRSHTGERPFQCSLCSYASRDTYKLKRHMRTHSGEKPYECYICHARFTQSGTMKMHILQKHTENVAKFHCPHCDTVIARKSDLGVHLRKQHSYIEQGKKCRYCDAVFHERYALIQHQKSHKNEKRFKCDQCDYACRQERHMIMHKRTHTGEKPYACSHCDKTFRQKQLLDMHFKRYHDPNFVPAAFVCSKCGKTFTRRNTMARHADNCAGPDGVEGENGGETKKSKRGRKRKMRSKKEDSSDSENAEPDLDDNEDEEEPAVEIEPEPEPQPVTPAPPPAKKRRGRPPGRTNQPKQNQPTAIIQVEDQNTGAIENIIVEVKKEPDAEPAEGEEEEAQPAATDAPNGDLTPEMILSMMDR
UniProt P08574: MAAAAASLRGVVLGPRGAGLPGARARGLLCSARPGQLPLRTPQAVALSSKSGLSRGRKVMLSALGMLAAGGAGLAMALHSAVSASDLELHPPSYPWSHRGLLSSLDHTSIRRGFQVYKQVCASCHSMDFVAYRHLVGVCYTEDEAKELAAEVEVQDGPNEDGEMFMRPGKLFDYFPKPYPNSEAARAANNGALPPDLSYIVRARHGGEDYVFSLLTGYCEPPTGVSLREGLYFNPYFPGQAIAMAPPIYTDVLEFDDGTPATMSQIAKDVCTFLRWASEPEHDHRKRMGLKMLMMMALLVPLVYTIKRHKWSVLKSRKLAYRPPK
UniProt Q53ET0: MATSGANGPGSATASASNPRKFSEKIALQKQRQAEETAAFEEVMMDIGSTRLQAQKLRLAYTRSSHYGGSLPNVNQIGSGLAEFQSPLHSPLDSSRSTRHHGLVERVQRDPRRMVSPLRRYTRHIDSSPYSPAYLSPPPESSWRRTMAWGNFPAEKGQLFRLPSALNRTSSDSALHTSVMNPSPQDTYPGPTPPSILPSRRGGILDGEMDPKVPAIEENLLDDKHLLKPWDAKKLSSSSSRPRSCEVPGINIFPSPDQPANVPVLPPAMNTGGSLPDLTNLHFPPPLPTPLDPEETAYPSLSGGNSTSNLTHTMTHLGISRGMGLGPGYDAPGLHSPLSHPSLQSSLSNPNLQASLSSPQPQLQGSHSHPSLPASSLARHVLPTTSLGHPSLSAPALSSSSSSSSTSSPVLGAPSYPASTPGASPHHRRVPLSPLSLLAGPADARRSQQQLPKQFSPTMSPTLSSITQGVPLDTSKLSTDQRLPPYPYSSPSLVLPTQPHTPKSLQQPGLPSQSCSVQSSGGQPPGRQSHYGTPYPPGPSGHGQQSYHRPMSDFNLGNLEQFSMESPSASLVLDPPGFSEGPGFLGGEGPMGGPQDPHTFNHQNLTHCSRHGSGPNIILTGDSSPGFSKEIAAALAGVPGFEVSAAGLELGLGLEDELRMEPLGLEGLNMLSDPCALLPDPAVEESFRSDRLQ
UniProt O75390: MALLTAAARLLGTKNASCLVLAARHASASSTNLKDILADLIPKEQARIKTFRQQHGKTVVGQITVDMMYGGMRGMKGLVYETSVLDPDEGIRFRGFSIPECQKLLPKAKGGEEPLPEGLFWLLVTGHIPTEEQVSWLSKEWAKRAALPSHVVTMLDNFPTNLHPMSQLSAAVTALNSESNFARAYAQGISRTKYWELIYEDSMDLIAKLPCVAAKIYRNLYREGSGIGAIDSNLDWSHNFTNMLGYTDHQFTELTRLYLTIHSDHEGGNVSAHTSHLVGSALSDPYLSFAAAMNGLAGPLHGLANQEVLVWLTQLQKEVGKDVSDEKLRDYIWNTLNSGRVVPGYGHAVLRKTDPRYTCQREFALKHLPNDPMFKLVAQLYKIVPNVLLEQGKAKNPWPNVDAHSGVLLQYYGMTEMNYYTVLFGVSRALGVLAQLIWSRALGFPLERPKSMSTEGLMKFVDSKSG
UniProt P01034: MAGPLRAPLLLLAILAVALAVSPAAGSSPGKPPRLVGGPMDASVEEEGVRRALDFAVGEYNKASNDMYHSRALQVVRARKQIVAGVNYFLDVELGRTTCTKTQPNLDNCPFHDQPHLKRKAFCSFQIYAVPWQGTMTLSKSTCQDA
UniProt Q01459: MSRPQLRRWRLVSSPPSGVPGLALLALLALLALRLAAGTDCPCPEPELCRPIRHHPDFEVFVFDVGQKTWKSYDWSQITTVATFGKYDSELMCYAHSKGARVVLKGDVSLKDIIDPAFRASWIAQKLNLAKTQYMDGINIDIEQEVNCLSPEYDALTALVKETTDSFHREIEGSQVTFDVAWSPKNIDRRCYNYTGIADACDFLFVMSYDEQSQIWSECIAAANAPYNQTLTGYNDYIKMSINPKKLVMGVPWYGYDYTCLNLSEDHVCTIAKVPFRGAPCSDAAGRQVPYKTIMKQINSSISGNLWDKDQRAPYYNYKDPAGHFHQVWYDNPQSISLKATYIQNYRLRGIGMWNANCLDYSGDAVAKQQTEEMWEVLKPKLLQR
UniProt Q8TB03: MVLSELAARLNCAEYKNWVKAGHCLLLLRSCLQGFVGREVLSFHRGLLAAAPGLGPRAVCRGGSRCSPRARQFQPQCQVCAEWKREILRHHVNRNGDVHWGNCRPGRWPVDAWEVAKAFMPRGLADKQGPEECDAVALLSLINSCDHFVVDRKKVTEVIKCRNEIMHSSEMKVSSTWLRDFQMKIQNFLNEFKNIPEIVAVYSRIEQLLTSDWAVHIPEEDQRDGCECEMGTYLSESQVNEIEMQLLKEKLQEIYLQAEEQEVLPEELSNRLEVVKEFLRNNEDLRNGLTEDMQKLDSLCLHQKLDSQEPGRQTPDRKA
UniProt P04080: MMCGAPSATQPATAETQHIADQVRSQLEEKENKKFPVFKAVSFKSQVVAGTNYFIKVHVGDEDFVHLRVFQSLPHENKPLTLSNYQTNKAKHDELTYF

What was measured:
Assay in all cases: log2 fold change, soluble protein after heating vs DMSO (PISA); higher = thermal stabilisation; K562 lysate, 10 uM; active = over 0.2 and 3.5 SD of the protein, either way, in both replicates (recomputed)
lapatinib = compound: CS(=O)(=O)CCNCc1ccc(-c2ccc3ncnc(Nc4ccc(OCc5cccc(F)c5)c(Cl)c4)c3c2)o1 [lapatinib]
Method in brief: (§1)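 Thermal stability, expressed as log-two fold change relative to solvent controls, is given from duplicates. Crude K562 extract in PBS pH 7.4 with 1 mM MgCl2, at 1 mg/mL protein, was treated with 10 μM compound for 30 min and heated in aliquots for 3 min across 48°C-58°C. After pooling, adjustment to 0.5% NP-40 at 4°C and centrifugation at 21,000xg for 90 min, supernatant protein was measured by TMTpro 16plex LC-MS/MS with channel sums equalised.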

pictilisib = compound: CS(=O)(=O)N1CCN(Cc2cc3nc(-c4cccc5[nH]ncc45)nc(N4CCOCC4)c3s2)CC1 [pictilisib]
Method in brief: as §1

crizotinib = compound: C[C@@H](Oc1cc(-c2cnn(C3CCNCC3)c2)cnc1N)c1c(Cl)ccc(F)c1Cl [crizotinib]
Method in brief: as §1

[1] = compound: C[C@H](C1=CC=C(C=C1)C(=O)NC2=C3C=CNC3=NC=C2)N
Method in brief: as §1

duvelisib = compound: C[C@H](Nc1ncnc2nc[nH]c12)c1cc2cccc(Cl)c2c(=O)n1-c1ccccc1 [duvelisib]
Method in brief: as §1

gandotinib = compound: Cc1cc(Nc2cc(CN3CCOCC3)c3nc(C)c(Cc4ccc(Cl)cc4F)n3n2)n[nH]1 [gandotinib]
Method in brief: as §1

tozasertib = compound: Cc1cc(Nc2cc(N3CCN(C)CC3)nc(Sc3ccc(NC(=O)C4CC4)cc3)n2)n[nH]1 [tozasertib]
Method in brief: as §1

doramapimod = compound: Cc1ccc(-n2nc(C(C)(C)C)cc2NC(=O)Nc2ccc(OCCN3CCOCC3)c3ccccc23)cc1 [doramapimod]
Method in brief: as §1

bafetinib = compound: Cc1ccc(NC(=O)c2ccc(CN3CC[C@H](N(C)C)C3)c(C(F)(F)F)c2)cc1Nc1nccc(-c2cncnc2)n1 [bafetinib]
Method in brief: as §1

[2] = compound: Cc1cccc(CC(=O)N2CCc3c2ccc(-c2cn(C)c4ncnc(N)c24)c3F)n1
Method in brief: as §1

nilotinib = compound: Cc1cn(-c2cc(NC(=O)c3ccc(C)c(Nc4nccc(-c5cccnc5)n4)c3)cc(C(F)(F)F)c2)cn1 [nilotinib]
Method in brief: as §1

[3] = compound: Cc1nc(Nc2n[nH]c3c2CN(C(=O)N[C@H](CN(C)C)c2ccccc2)C3(C)C)c2sccc2n1
Method in brief: as §1

dasatinib = compound: Cc1nc(Nc2ncc(C(=O)Nc3c(C)cccc3Cl)s2)cc(N2CCN(CCO)CC2)n1 [dasatinib]
Method in brief: as §1

[4] = compound: Cc1ncc(-c2ccnc(Nc3ccc(S(C)(=O)=O)cc3)n2)n1C(C)C
Method in brief: as §1

[5] = compound: Cn1cc(-c2ccc3c(c2)CCN3C(=O)Cc2cccc(C(F)(F)F)c2)c2c(N)ncnc21
Method in brief: as §1

quisinostat = compound: Cn1cc(CNCC2CCN(c3ncc(C(=O)NO)cn3)CC2)c2ccccc21 [quisinostat]
Method in brief: as §1

tipifarnib = compound: Cn1cncc1[C@@](N)(c1ccc(Cl)cc1)c1ccc2c(c1)c(-c1cccc(Cl)c1)cc(=O)n2C [tipifarnib]
Method in brief: as §1

[6] = compound: NC(=O)Nc1cc(-c2cccc(F)c2)sc1C(=O)N[C@H]1CCCNC1
Method in brief: as §1

[7] = compound: NC(=O)c1cnc(N[C@@H]2CCCC[C@@H]2N)nc1Nc1cccc(-n2nccn2)c1
Method in brief: as §1

[8] = compound: NC1(c2ccc(-c3nc4ccn5c(=O)[nH]nc5c4cc3-c3ccccc3)cc2)CCC1
Method in brief: as §1

Measured: log2 fold change

CTR9 (UniProt Q6PD62)
inactive: lapatinib -0.001 | pictilisib -0.02 | crizotinib -0.023 | [1] -0.048 | duvelisib 0.003 | gandotinib 0.008 | tozasertib 0.005 | doramapimod 0.008 | bafetinib -0.068 | [2] 0.04 | nilotinib 0.014 | [3] 0.007 | dasatinib -0.016 | [4] -0.007 | [5] 0.008 | quisinostat -0.007 | tipifarnib -0.054 | [6] 0.001 | [7] -0.007 | [8] 0.018

CSNK1G2 (UniProt P78368)
inactive: lapatinib -0.284 | pictilisib 0.164 | crizotinib -0.085 | [1] -0.25 | duvelisib 0.045 | gandotinib 0.13 | tozasertib -0.095 | doramapimod 0.061 | bafetinib -0.118 | [2] 0.072 | nilotinib -0.084 | [3] 0.183 | dasatinib 0.001 | [4] 0.281 | [5] -0.023 | quisinostat -0.03 | tipifarnib 0.039 | [6] 0.127 | [7] 0 | [8] 0.087

CUL4B (UniProt Q13620)
inactive: lapatinib -0.019 | pictilisib -0.019 | crizotinib -0.012 | [1] -0.125 | duvelisib 0.001 | gandotinib 0.032 | tozasertib -0.028 | doramapimod 0.022 | bafetinib -0.019 | [2] 0.074 | nilotinib -0.009 | [3] -0.004 | dasatinib -0.001 | [4] 0.009 | [5] -0.007 | quisinostat 0 | tipifarnib 0 | [6] 0.001 | [7] 0.01 | [8] -0.022

CWF19L2 (UniProt Q2TBE0)
inactive: lapatinib 0.249 | pictilisib -0.033 | crizotinib 0.006 | [1] -0.023 | duvelisib -0.005 | gandotinib 0.122 | tozasertib 0.005 | doramapimod 0.002 | bafetinib -0.091 | [2] 0.046 | nilotinib -0.031 | [3] 0.062 | dasatinib 0.002 | [4] -0.039 | [5] 0.018 | quisinostat 0.026 | tipifarnib -0.022 | [6] -0.021 | [7] 0.024 | [8] 0

Pulled one by one from above (2):
CSNK1G2 (UniProt P78368)
inactive: lapatinib -0.284 | pictilisib 0.164 | crizotinib -0.085 | [1] -0.25 | duvelisib 0.045 | gandotinib 0.13 | tozasertib -0.095 | doramapimod 0.061 | bafetinib -0.118 | [2] 0.072 | nilotinib -0.084 | [3] 0.183 | dasatinib 0.001 | [4] 0.281 | [5] -0.023 | quisinostat -0.03 | tipifarnib 0.039 | [6] 0.127 | [7] 0 | [8] 0.087

CTR9 (UniProt Q6PD62)
inactive: lapatinib -0.001 | pictilisib -0.02 | crizotinib -0.023 | [1] -0.048 | duvelisib 0.003 | gandotinib 0.008 | tozasertib 0.005 | doramapimod 0.008 | bafetinib -0.068 | [2] 0.04 | nilotinib 0.014 | [3] 0.007 | dasatinib -0.016 | [4] -0.007 | [5] 0.008 | quisinostat -0.007 | tipifarnib -0.054 | [6] 0.001 | [7] -0.007 | [8] 0.018

Next records

CRPPA (UniProt A4D126)
inactive: lapatinib -0.011 | pictilisib -0.065 | crizotinib -0.018 | [1] -0.02 | duvelisib 0.016 | gandotinib 0.015 | tozasertib -0.022 | doramapimod 0.016 | bafetinib 0.008 | [2] 0.005 | nilotinib -0.037 | [3] -0.018 | dasatinib 0.02 | [4] 0.017 | [5] -0.019 | quisinostat -0.062 | tipifarnib 0.008 | [6] 0.013 | [7] 0.022 | [8] 0.028

CSRP3 (UniProt P50461)
inactive: lapatinib 0.044 | pictilisib 0.016 | crizotinib -0.077 | [1] 0 | duvelisib 0.094 | gandotinib 0.037 | tozasertib 0.018 | doramapimod 0.068 | bafetinib -0.077 | [2] 0.017 | nilotinib 0.042 | [3] 0.145 | dasatinib -0.044 | [4] 0.12 | [5] 0.037 | quisinostat -0.028 | tipifarnib 0.006 | [6] -0.172 | [7] 0.017 | [8] -0.01

CTSL (UniProt P07711)
inactive: lapatinib -0.023 | pictilisib -0.01 | crizotinib 0.005 | [1] -0.075 | duvelisib 0.003 | gandotinib 0.079 | tozasertib -0.054 | doramapimod 0.005 | bafetinib -0.005 | [2] 0.009 | nilotinib 0 | [3] 0.005 | dasatinib -0.003 | [4] 0.007 | [5] 0.018 | quisinostat -0.042 | tipifarnib 0.03 | [6] 0.006 | [7] 0.034 | [8] -0.001

CYB5B (UniProt O43169)
inactive: lapatinib -0.02 | pictilisib -0.034 | crizotinib 0.046 | [1] 0.054 | duvelisib -0.038 | gandotinib 0.009 | tozasertib -0.024 | doramapimod -0.077 | bafetinib 0.01 | [2] 0.066 | nilotinib 0.045 | [3] -0.055 | dasatinib 0.037 | [4] 0.031 | [5] -0.134 | quisinostat 0.016 | tipifarnib 0.056 | [6] -0.011 | [7] -0.014 | [8] -0.002

CTCF (UniProt P49711)
inactive: lapatinib -0.025 | pictilisib 0.008 | crizotinib -0.025 | [1] 0.136 | duvelisib 0.017 | gandotinib -0.064 | tozasertib -0.03 | doramapimod -0.017 | bafetinib -0.02 | [2] -0.127 | nilotinib 0.016 | [3] -0.006 | dasatinib 0.013 | [4] -0.031 | [5] 0.046 | quisinostat -0.005 | tipifarnib 0.023 | [6] 0.005 | [7] 0.003 | [8] -0.016

CYC1 (UniProt P08574)
inactive: lapatinib 0.029 | pictilisib -0.044 | crizotinib 0.136 | [1] 0.068 | duvelisib -0.018 | gandotinib -0.029 | tozasertib 0.051 | doramapimod -0.024 | bafetinib 0.045 | [2] -0.067 | nilotinib 0.089 | [3] -0.007 | dasatinib 0.038 | [4] 0.053 | [5] 0.019 | quisinostat 0.196 | tipifarnib 0.001 | [6] 0.01 | [7] -0.062 | [8] 0.03

CRTC2 (UniProt Q53ET0)
inactive: lapatinib 0.136 | pictilisib -0.015 | crizotinib -0.042 | [1] -0.062 | duvelisib -0.012 | gandotinib 0.029 | tozasertib -0.068 | doramapimod -0.029 | bafetinib 0.02 | [2] 0.102 | nilotinib -0.038 | [3] 0.04 | dasatinib 0.035 | [4] -0.061 | [5] -0.021 | quisinostat -0.059 | tipifarnib -0.103 | [6] 0.05 | [7] 0.002 | [8] 0.005

CS (UniProt O75390)
inactive: lapatinib 0.001 | pictilisib -0.019 | crizotinib -0.014 | [1] 0.022 | duvelisib -0.017 | gandotinib -0.009 | tozasertib 0.047 | doramapimod -0.005 | bafetinib 0.035 | [2] -0.049 | nilotinib 0.008 | [3] -0.019 | dasatinib -0.009 | [4] -0.002 | [5] -0.024 | quisinostat -0.017 | tipifarnib 0.022 | [6] -0.017 | [7] -0.004 | [8] -0.018

CST3 (UniProt P01034)
inactive: lapatinib 0.05 | pictilisib 0.019 | crizotinib -0.03 | [1] 0.029 | duvelisib -0.072 | gandotinib -0.005 | tozasertib 0.151 | doramapimod 0.044 | bafetinib 0.016 | [2] 0.137 | nilotinib -0.021 | [3] -0.023 | dasatinib 0.031 | [4] -0.048 | [5] 0.096 | quisinostat 0.033 | tipifarnib -0.004 | [6] -0.062 | [7] -0.028 | [8] 0.039

CTBS (UniProt Q01459)
inactive: lapatinib 0.02 | pictilisib -0.022 | crizotinib 0.004 | [1] 0.012 | duvelisib 0.078 | gandotinib 0.039 | tozasertib -0.006 | doramapimod -0.093 | bafetinib 0.004 | [2] -0.039 | nilotinib 0.043 | [3] -0.023 | dasatinib 0.034 | [4] 0.067 | [5] -0.005 | quisinostat 0.031 | tipifarnib -0.023 | [6] 0.021 | [7] -0.032 | [8] -0.03

CXorf38 (UniProt Q8TB03)
inactive: lapatinib -0.05 | pictilisib -0.017 | crizotinib -0.019 | [1] -0.039 | duvelisib 0.013 | gandotinib 0.037 | tozasertib 0.037 | doramapimod 0.013 | bafetinib -0.018 | [2] -0.033 | nilotinib 0.029 | [3] 0.013 | dasatinib -0.04 | [4] 0.053 | [5] -0.034 | quisinostat 0.004 | tipifarnib 0.002 | [6] 0.006 | [7] 0.049 | [8] 0.009

CSTB (UniProt P04080)
inactive: lapatinib 0.05 | pictilisib 0.003 | crizotinib -0.059 | [1] -0.235 | duvelisib 0.025 | gandotinib 0.147 | tozasertib -0.01 | doramapimod 0.107 | bafetinib 0.012 | [2] 0.104 | nilotinib 0.057 | [3] 0.009 | dasatinib -0.017 | [4] 0.079 | [5] -0.022 | quisinostat -0.206 | tipifarnib -0.008 | [6] -0.004 | [7] -0.055 | [8] -0.005
